Reference: the supplement of paper PMC10331698
± gives the standard deviation of the averaged measurements. Most entries show no effect beyond the scatter of the controls.

Key:
Assay in all cases: level (log10 ratio to DMSO vehicle control); higher = higher biomarker level / cell amount than vehicle control
[1] = compound: OCCC(F)(F)C(F)(F)C(F)(F)C(F)(F)C(F)(F)C(F)(F)C(F)(F)C(F)(F)F [8:2 Fluorotelomer alcohol]; settings: 2200 nM; in DMSO
Protocol: (§1)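 BioMAP Diversity Plus panel of 12 human primary cell co-culture systems (3C, 4H, LPS, SAg, BT, BF4T, BE3C, CASM3C, HDF3CGF, KF3CT, MyoF, Mphg). Compounds were added 1 h before stimulation and left for 24 h (MyoF 48 h; BT 72 h for soluble read-outs or 6 d for IgG). Biomarkers were read by ELISA, cytotoxicity by SRB, PBMC viability and proliferation by Alamar Blue. Each well value was divided by the mean of 8 DMSO control wells on the same plate and log10 transformed; duplicate blinded samples were tested at 4 concentrations.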

[2] = compound: FC(F)(F)C(F)(F)C(F)(F)C(F)(F)C(F)(F)C(F)(F)C(F)(F)CCI [1-Iodo-1H,1H,2H,2H-perfluorononane]; settings: in DMSO
Protocol: as §1

[3] = compound: O=C(O)C(F)(F)OC(F)(F)C(F)(F)OC(F)(F)C(=O)O [Perfluoro-3,6-dioxaoctane-1,8-dioic acid]; settings: 2200 nM; in DMSO
Protocol: as §1

[4] = compound: O=C(O)C=CC(F)(C(F)(F)F)C(F)(F)F [3-(Perfluoroisopropyl)-2-propenoic acid]; settings: in DMSO
Protocol: as §1

[5] = compound: NC(=O)C(F)(F)C(F)(F)C(F)(F)C(F)(F)C(F)(F)C(F)(F)C(F)(F)F [Perfluorooctanamide]; settings: 2200 nM; in DMSO
Protocol: as §1

[6] = compound: O=C(O)C(F)(F)C(F)(F)C(F)(F)F [Perfluorobutanoic acid]; settings: 2200 nM; in DMSO
Protocol: as §1

[7] = compound: O=C(O)C(F)(F)C(F)(F)C(F)(F)C(F)(F)C(F)(F)C(F)(F)C(F)(F)C(F)(F)C(F)(F)C(F)(F)F [Perfluoroundecanoic acid]; settings: in DMSO
Protocol: as §1

[8] = compound: O=C(O)C(F)(F)OC(F)(F)C(F)(F)OC(F)(F)C(F)(F)C(F)(F)C(F)(F)F [Perfluoro-3,6-dioxadecanoic acid]; settings: 2200 nM; in DMSO
Protocol: as §1

[9] = compound: FC(F)C(F)(F)COCC1CO1 [((2,2,3,3-Tetrafluoropropoxy)methyl)oxirane]; settings: 2200 nM; in DMSO
Protocol: as §1

[10] = compound: FC(F)(F)C(F)(F)C(F)(F)C(F)(F)C(F)(F)C(F)(F)C(F)(F)I [1-Iodopentadecafluoroheptane]; settings: in DMSO
Protocol: as §1

[11] = compound: O=S(=O)(Cl)C(F)(F)C(F)(F)C(F)(F)C(F)(F)C(F)(F)C(F)(F)C(F)(F)C(F)(F)F [Perfluoro-1-octanesulfonyl chloride]; settings: 2200 nM; in DMSO
Protocol: as §1

[12] = compound: O=P(O)(O)CCC(F)(F)C(F)(F)C(F)(F)C(F)(F)C(F)(F)C(F)(F)C(F)(F)C(F)(F)F [((Perfluorooctyl)ethyl)phosphonic acid]; settings: 2200 nM; in DMSO
Protocol: as §1

[13] = compound: O=C(O)C(F)(F)C(F)(F)OC(F)(F)F [Perfluoro-3-methoxypropanoic acid]; settings: 2200 nM; in DMSO
Protocol: as §1

[14] = compound: O=C(O)C(F)(F)C(F)(F)C(F)(F)C(F)(F)C(F)(F)C(F)(F)C(F)(F)C(F)F [9-H-Perfluorononanoic acid]; settings: 2200 nM; in DMSO
Protocol: as §1

[15] = compound: C=CC(=O)OCC(F)(F)C(F)(F)C(F)(F)C(F)(F)COC(=O)C=C [1H,1H,6H,6H-Perfluorohexane-1,6-diol diacrylate]; settings: 2200 nM; in DMSO
Protocol: as §1

[16] = compound: OCC(F)(F)C(F)(F)C(F)(F)C(F)(F)C(F)(F)C(F)(F)C(F)(F)C(F)(F)C(F)(F)C(F)(F)C(F)(F)F [11:1 Fluorotelomer alcohol]; settings: in DMSO
Protocol: as §1

[17] = compound: O=C(O)C(F)(F)C(F)(F)F [Perfluoropropanoic acid]; settings: 2200 nM; in DMSO
Protocol: as §1

[18] = compound: C=C(C)C(=O)OCC(F)(F)C(F)(F)C(F)(F)F [2,2,3,3,4,4,4-Heptafluorobutyl methacrylate]; settings: 2200 nM; in DMSO
Protocol: as §1

Test System | level (log10) [1] | level (log10) ([2]; 740 nM) | level (log10) ([2]; 2200 nM) | level (log10) ([2]; 6700 nM) | level (log10) ([2]; 20000 nM) | level (log10) [3] | level (log10) ([4]; 2200 nM) | level (log10) ([4]; 6700 nM) | level (log10) ([4]; 20000 nM) | level (log10) ([4]; 60000 nM) | level (log10) [5] | level (log10) [6] | level (log10) ([7]; 740 nM) | level (log10) ([7]; 2200 nM) | level (log10) [8] | level (log10) [9] | level (log10) ([10]; 740 nM) | level (log10) ([10]; 2200 nM) | level (log10) ([10]; 6700 nM) | level (log10) ([10]; 20000 nM) | level (log10) [11] | level (log10) [12] | level (log10) [13] | level (log10) [14] | level (log10) [15] | level (log10) ([16]; 370 nM) | level (log10) ([16]; 1100 nM) | level (log10) ([16]; 3300 nM) | level (log10) ([16]; 10000 nM) | level (log10) [17] | level (log10) [18]
BE3C:MMP-9 | -0.0075 ± 0.029 | 0.0005 ± 0.047 | -0.0045 ± 0.03 | -0.0045 ± 0.013 | -0.0045 ± 0.026 | 0.0145 ± 0.052 | 0.017 ± 0.033 | -0.018 ± 0.0042 | -0.008 ± 0.0028 | 0.007 ± 0.04 | -0.0235 ± 0.032 | -0.0095 ± 0.042 | -0.0885 ± 0.044 | -0.043 ± 0.027 | -0.008 ± 0.014 | -0.0205 ± 0.015 | -0.022 ± 0.0085 | 0.0005 ± 0.012 | -0.014 ± 0.035 | -0.0465 ± 0.015 | -0.0095 ± 0.028 | 0.0125 ± 0.03 | 0.015 ± 0.072 | -0.0135 ± 0.0092 | 0.015 ± 0.0057 | -0.0215 ± 0.013 | -0.0475 ± 0.029 | -0.102 ± 0.0042 | -0.0735 ± 0.019 | -0.0135 ± 0.036 | 0.0105 ± 0.037
HDF3CGF:M-CSF | -0.0125 ± 0.032 | 0.014 ± 0.0028 | -0.019 ± 0.0099 | -0.0895 ± 0.049 | -0.12 ± 0.064 | -0.0035 ± 0.00071 | -0.0075 ± 0.016 | -0.0005 ± 0.0021 | 0.001 ± 0.0028 | 0 ± 0.0057 | -0.0055 ± 0.023 | 0.0105 ± 0.021 | 0.0275 ± 0.0064 | 0.031 ± 0.0071 | -0.043 ± 0.0071 | -0.005 ± 0.035 | 0.002 ± 0.0085 | -0.0105 ± 0.0078 | -0.0165 ± 0.018 | -0.0165 ± 0.0064 | -0.0225 ± 0.042 | 0.0395 ± 0.005 | -0.011 ± 0.0057 | 0.0085 ± 0.013 | -0.123 ± 0.029 | 0.0225 ± 0.028 | 0.0115 ± 0.016 | 0.0095 ± 0.032 | -0.003 ± 0.021 | -0.01 ± 0.031 | 0.044 ± 0.0042
SAg:CD40 | 0 ± 0.0042 | -0.0365 ± 0.066 | -0.024 ± 0.011 | -0.006 ± 0.021 | -0.0065 ± 0.0092 | 0.024 ± 0.025 | -0.004 ± 0.013 | -0.006 ± 0.058 | -0.005 ± 0.04 | -0.038 ± 0.014 | -0.009 | -0.001 ± 0.027 | 0.009 ± 0.0028 | -0.0075 ± 0.005 | 0.011 ± 0.0014 | -0.0055 ± 0.0092 | -0.028 ± 0.045 | -0.009 ± 0.0028 | -0.0065 ± 0.013 | -0.007 ± 0.0085 | -0.0215 ± 0.011 | -0.0415 ± 0.036 | 0.016 ± 0.025 | -0.0425 ± 0.015 | -0.04 ± 0.024 | -0.012 ± 0.067 | -0.038 ± 0.024 | -0.068 | -0.0685 ± 0.042 | -0.017 ± 0.018 | 0.0135 ± 0.036
CASM3C:CD106/VCAM-1 | -0.036 ± 0.028 | -0.0035 ± 0.005 | -0.008 ± 0.014 | -0.019 ± 0.0099 | -0.0645 ± 0.012 | 0.022 ± 0.071 | 0.007 ± 0.034 | -0.0315 ± 0.013 | -0.015 ± 0.0014 | -0.0045 ± 0.071 | -0.0205 ± 0.0078 | -0.022 ± 0.023 | -0.0215 ± 0.021 | -0.047 ± 0.027 | 0.0185 ± 0.0021 | 0.0095 ± 0.019 | 0.01 ± 0.035 | -0.023 ± 0.013 | -0.0125 ± 0.005 | -0.019 ± 0.034 | 0.001 ± 0.024 | 0.0095 ± 0.09 | 0.007 ± 0.054 | -0.021 ± 0.021 | -0.0285 ± 0.025 | -0.012 ± 0.0071 | -0.004 ± 0.024 | 0 ± 0.023 | -0.0105 ± 0.019 | -0.001 ± 0.038 | 0.0125 ± 0.011
3C:CD54/ICAM-1 | -0.0035 ± 0.016 | 0.016 ± 0.023 | 0.0025 ± 0.0092 | -0.0115 ± 0.00071 | 0.0025 ± 0.016 | 0.014 ± 0.017 | 0.015 ± 0.013 | -0.013 ± 0.033 | -0.0185 ± 0.025 | -0.003 ± 0.013 | -0.0005 ± 0.0064 | -0.0245 ± 0.00071 | 0.003 ± 0.014 | -0.007 ± 0.016 | 0.0165 ± 0.0092 | 0.0065 ± 0.012 | -0.0175 ± 0.0021 | -0.021 ± 0.0085 | -0.0115 ± 0.00071 | 0.014 ± 0.016 | -0.0155 ± 0.0064 | 0.013 ± 0.0099 | 0.0135 ± 0.025 | 0.0105 ± 0.0035 | 0.0205 ± 0.011 | 0.0085 ± 0.033 | 0.011 ± 0.03 | 0.0305 ± 0.028 | 0.0385 ± 0.018 | -0.0055 ± 0.0078 | 0.005 ± 0.03
BE3C:IL-1alpha | 0 ± 0.0099 | -0.0075 ± 0.022 | 0.0015 ± 0.032 | -0.0075 ± 0.0078 | 0.0075 ± 0.026 | 0.0265 ± 0.016 | -0.0075 ± 0.033 | -0.001 ± 0.031 | -0.0065 ± 0.0064 | 0.0025 ± 0.005 | 0.006 ± 0.0014 | 0.0365 ± 0.012 | -0.017 ± 0.0071 | -0.0175 ± 0.00071 | 0.0025 ± 0.0035 | -0.0165 ± 0.0035 | -0.0215 ± 0.00071 | -0.0065 ± 0.0092 | -0.0175 ± 0.005 | -0.0185 ± 0.0021 | 0.011 ± 0.014 | 0.005 ± 0.013 | 0.012 ± 0.031 | 0.025 ± 0.03 | -0.0145 ± 0.013 | 0.007 ± 0.013 | -0.011 ± 0.018 | -0.0325 ± 0.0021 | -0.029 ± 0.02 | -0.023 ± 0.0057 | 0.0025 ± 0.00071
BT:Secreted IgG | 0.0025 ± 0.06 | 0.0075 ± 0.0078 | 0.0135 ± 0.0092 | -0.0075 ± 0.06 | 0.0115 ± 0.074 | -0.0145 ± 0.0035 | -0.036 ± 0.03 | -0.041 ± 0.048 | -0.0035 ± 0.016 | -0.0205 ± 0.013 | -0.0025 ± 0.047 | -0.006 ± 0.04 | -0.0095 ± 0.0092 | 0.0065 ± 0.0078 | 0.0655 ± 0.025 | 0.0515 ± 0.022 | -0.007 ± 0.044 | -0.006 ± 0.017 | -0.006 ± 0.05 | -0.01 ± 0.044 | -0.009 ± 0.0085 | 0.013 ± 0.0057 | 0.0255 ± 0.053 | -0.019 ± 0.014 | -0.0595 ± 0.05 | 0.005 ± 0.016 | 0.007 ± 0.025 | 0.0025 ± 0.033 | -0.014 ± 0.054 | 0.0305 ± 0.012 | 0.0015 ± 0.071
